The test can be described thus: qHTS Assay for Lipid Storage Modulators in Drosophila S3 Cells.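 For cell number change: cells counted by Cell Tracker Red CMTPX staining in the red channel.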 Particulars: BODIPY lipid droplet fluorescence, 18-24 h; for cell number change: measured here: cell count max response, cells fed with added oleic acid. The method in brief: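 Drosophila S3 cells got compounds at several concentrations plus oleic acid (400 uM solution). Laser-scanning cytometry with 488 nm excitation read lipid droplets at 500-530 nm and cells at 575-640 nm. Percent activity was relative to 20 uM Triacsin C.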

Setting [1] is: measured here: lipid fluorescence (Fed channel) AC50, cells fed with added oleic acid.
Where [2] appears, read: measured here: cell number channel AC50, cells fed with added oleic acid.

The other results are listed elsewhere or left out. Shown are side measurements of this screen, not its main read-out; they come without a call. The list favours compounds with an active or inconclusive main result. Potencies come from curve fits of mixed quality, noted in brackets.

On to `Cn1c(O)c(/C=C2\N=c3ccccc3=C2CCNC(=S)NC2CC2)c(=O)n(C)c1=O`, for which the cell number change was -29%. Further, under setting [1], the AC50 was 23.1 µM [falling, partial curve].

`Cc1nccc2c1[nH]c1ccccc12`: the cell number change was determined as 7.79%. In addition, under setting [1], the AC50 was 1.84 µM [rising, full curve, poor fit].

Regarding `CC[n+]1c(/C=C/C=C/c2ccc(N(C)C)cc2)sc2ccccc21`, the cell number change is -60.9%. The AC50 under setting [2] was 1.16 µM [falling, full curve]. Moreover, the AC50 under setting [1] was 2.31 µM [falling, full curve].

For the molecule `CCN(CC)c1ccc(N=Cc2c(O)n(-c3ccccc3)c(=O)[nH]c2=O)cc1`, the cell number change was 37.1%. Also, the AC50 under setting [2] is 0.82 µM [rising, partial curve, poor fit]. Further, the AC50 under setting [1] was 4.61 µM [rising, partial curve].

On to `BrCC(Br)C1CCC(Br)C(Br)C1` (configuration not stated), for which the cell number change was -20.9%. The AC50 under setting [1] was 0.00411 µM [falling, full curve, poor fit].

As to `CC(C)(C)n1cc(C(=O)c2ccc3ccccc3c2O)cn1`, the cell number change turned out to be 24.3%. Under setting [1], the AC50 is 32.6 µM [rising, partial curve, poor fit].

Take `Clc1ccccc1CN1CCN(c2ccccc2)CC1`: the cell number change was -11.5%. For the same molecule, the AC50 under setting [1] is 6.51 µM [falling, single point].

In the case of `C=CCn1c(O)c(C(C)=NCCC2=CCCCC2)c(=O)[nH]c1=O`, the cell number change turned out to be 38.4%. Further, under setting [2], the AC50 was 20.6 µM [rising, single point].

In the case of `O=C1CCN(C(=O)CCCn2c(=O)oc3ccccc32)CC1`, the cell number change is -12.4%. The AC50 under setting [1] is 0.146 µM [falling, full curve, poor fit].

With `Nc1c(Cl)cc([N+](=O)[O-])cc1Cl`, the cell number change was 38.7%. For the same molecule, the AC50 under setting [2] is 8.2 µM [rising, partial curve, poor fit]. In addition, under setting [1], the AC50 is 10.3 µM [rising, partial curve].

`Cc1cc(NC(=O)COC(=O)c2c(C)nn(Cc3ccccc3)c2C)no1`: the cell number change is -6.5%. For the same molecule, under setting [1], the AC50 was 0.092 µM [rising, full curve, poor fit].

For the molecule `CCN1CCC2(CCNC2)C1` (configuration not stated), the cell number change was 19%. Moreover, the AC50 under setting [1] was 29.1 µM [rising, single point].

`O=C(COc1ccccc1)N1CCN(Cc2c[nH]c3ccccc23)CC1`: the cell number change is -16.9%.

As for `O=C(CNC(=O)c1ccc(Cl)cc1)Nc1ccc(Br)cc1C(=O)c1ccccc1`, the cell number change was -12%. For the same molecule, the AC50 under setting [2] was 0.731 µM [rising, full curve].

Turning to `O=C(c1ccc(Cl)cc1)C1CCCN(Cc2cccc3ncccc23)C1` (configuration not stated), the cell number change was -20.8%. The AC50 under setting [1] was 29.1 µM [falling, single point].

As for `CC(C)(C)NC(=S)/N=C(\N)N[N+](=O)[O-]`, the cell number change was -41.1%. Moreover, under setting [2], the AC50 was 29.1 µM [falling, single point].

Turning to `CCCc1nc2ccccc2c(=O)n1-c1cccc(OC)c1`, the cell number change is 4.02%. Moreover, the AC50 under setting [1] was 6.51 µM [rising, single point].

Take `COC(=O)CC1(Cc2ccccc2)C(=O)NC(=O)NC1=O`: the cell number change is -21.6%. The AC50 under setting [1] was 23.1 µM [falling, partial curve].

`CCCCC1(CCCC)C(=O)NC(=Nc2cccc(C)c2)NC1=O`: the cell number change was -63.2%. For the same molecule, under setting [2], the AC50 is 25.9 µM [falling, partial curve]. The AC50 under setting [1] was 23.1 µM [falling, partial curve].

For `CCOc1ccc(-n2c(O)c(/C=C3\C=Nc4ccccc43)c(=O)[nH]c2=O)cc1`, the cell number change is 485%. Also, the AC50 under setting [2] was 29.1 µM [rising, single point]. Also, the AC50 under setting [1] is 18.4 µM [falling, partial curve].

`O=C(CCN1CCCCC1)Nc1ccc(Br)cc1C(=O)c1ccccc1`: the cell number change turned out to be 25.4%. Further, under setting [1], the concentration at half-maximal activity (AC50) is 23.1 µM [rising, single point].

For the molecule `COc1ccccc1N1CCN(Cc2ccc(Br)s2)CC1`, the AC50 was 0.82 µM [falling, full curve] under setting [2] and 29.1 µM [rising, single point] under setting [1].

In the case of `COC(=O)[C@]12OC[C@]34C([C@@H](O)[C@@H]1O)[C@]1(C)CC(=O)C(O)=C(C)[C@@H]1C[C@H]3OC(=O)[C@H](O)[C@@H]24` (some centres not stated), the cell number change is -50%. Under setting [2], the AC50 is 0.231 µM [falling, full curve]. Also, the AC50 under setting [1] was 2.59 µM [falling, full curve].

In the case of `CC1(C)N(O)C2CCCCC2N1O` (configuration not stated), the cell number change turned out to be 7.13%. Under setting [1], the AC50 is 6.51 µM [rising, partial curve].

Regarding `COC(=O)C1=C(c2ccc(-c3ccccc3)c(F)c2)C[C@@H]2CC[C@H]1N2C(=O)N1CCc2cc(OC)c(OC)cc2C1`, the cell number change was 2.52%. In addition, under setting [1], the AC50 is 0.13 µM [rising, full curve, poor fit].

As to `CCCCn1c(O)c(C(C)=NCCN2CCCCC2)c(=O)[nH]c1=O`, the cell number change amounted to 6.21%. Moreover, under setting [1], the concentration at half-maximal activity (AC50) is 4.61 µM [falling, full curve, poor fit].

As for `COc1ccc(CCN(C)Cc2ccc(F)cc2F)cc1OC`, the AC50 under setting [2] was 1.46 µM [rising, partial curve].

Turning to `Cc1[nH]c2ccccc2c1C(=O)CN1CC=C(c2ccccc2)CC1`, the cell number change turned out to be 15%. The AC50 under setting [1] was 9.2 µM [rising, single point].

`O=P(OC1CCCCC1)(OC1CCCCC1)C(O)c1ccccc1` (configuration not stated): under setting [2], the AC50 is 29.1 µM [rising, single point].

Take `COc1cc(C)c(CN2CC=C(c3ccc(F)cc3)CC2)cc1C`: the cell number change was 1.76%. In addition, the AC50 under setting [1] was 10.3 µM [rising, partial curve, poor fit].

For `Cc1ccc2c(c1)CC1(CN2C)C(=O)NC(=O)N(c2ccc(C)c(C)c2)C1=O` (configuration not stated), the cell number change amounted to 0.511%. Also, under setting [1], the AC50 is 6.51 µM [falling, single point].

On to `Cn1c2ccccc2c2cnn(CC(=O)N3CCC4(CC3)OCCO4)c(=O)c21`, for which the cell number change was found to be 10.3%.

With `Cc1ccc2c(c1)C1CN(C)CCC1N2C(=O)/C(C#N)=C/c1ccc2c(c1)OCO2` (configuration not stated), the cell number change was -28%. The AC50 under setting [1] was 25.9 µM [falling, partial curve, poor fit].

`N#C/C(N)=C(/N)C#N`: the cell number change was 3.16%. Besides, under setting [1], the AC50 was 0.0651 µM [rising, full curve].

For `Cn1c[n+](C)cc1C(O)c1ccccc1` (configuration not stated), the cell number change was found to be 1.55%. Also, the AC50 under setting [1] is 6.51 µM [rising, single point].

As to `Cc1ccc2c(c1)C1CN(C)CCC1N2C(=O)c1ccc(Br)o1` (configuration not stated), the cell number change stood at 72.9%. Further, under setting [2], the AC50 was 11.6 µM [rising, partial curve]. For the same molecule, the AC50 under setting [1] is 0.058 µM [rising, full curve, poor fit].

With `CCOC(=O)c1c(C)n(Cc2ccc(F)cc2)c2ccc(O)cc12`, the cell number change is -2.69%. The AC50 under setting [1] was 0.00517 µM [falling, full curve, poor fit].

These data come from PubChem BioAssay AID2685 (National Center for Advancing Translational Sciences (NCATS), 2010).
